PubChem BioAssay AID1259254 – NCATS, 2017
This is one part, drawn at random, of about 59,000 reagents tested. About 1,550 of them (2.6%) were called active. 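G2 share is only a proxy for re-replication; each gene was hit by three separate siRNAs, and active genes were retested.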 Reagents against one gene are numbered here. Further read-outs or replicates are left out here. Not stated in the record: the amount of reagent.

- Assay: 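Finding genes that stop cells copying their DNA twice in one cycle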 (primary screen)
- System: human HCT116 colorectal cancer cells
- Reagent: single siRNA against human genes
- Timing: 3 days
- Measured: 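Imaged Hoechst DNA stain sorts each cell into a cycle phase by DNA amount; per plate, G2 fraction set to 0% for non-targeting and 100% for GMNN siRNA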
- Reading the numbers: G2 robust z-score and G2 cells, % of GMNN control: higher = more G2 cells, more excess DNA replication
- Call rule: 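An siRNA counts as active if its G2 robust z-score lies at least 5 MADs above the screen median; here such calls match roughly 38% of GMNN control or more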

| target | reagent | G2 robust z-score | G2 cells, % of GMNN control | activity call |
| --- | --- | --- | --- | --- |
| CD47 (CD47 molecule) | 1 | -0.0871 | 2.35 | inactive |
| CD47 (CD47 molecule) | 2 | 0.796 | 8.57 | inactive |
| CD47 (CD47 molecule) | 3 | 0.702 | 7.91 | inactive |
| MRPL55 (mitochondrial ribosomal protein L55) | 1 | 1.52 | 13.6 | inactive |
| MRPL55 (mitochondrial ribosomal protein L55) | 2 | -0.591 | -1.19 | inactive |
| MRPL55 (mitochondrial ribosomal protein L55) | 3 | 1.41 | 12.9 | inactive |
| ABCB7 (ATP binding cassette subfamily B member 7) | 1 | -1.44 | -7.17 | inactive |
| ABCB7 (ATP binding cassette subfamily B member 7) | 2 | -0.184 | 1.67 | inactive |
| ABCB7 (ATP binding cassette subfamily B member 7) | 3 | 1.12 | 10.8 | inactive |
| ALDH3A2 (aldehyde dehydrogenase 3 family member A2) | 1 | 8.82 | 65 | active |
| ALDH3A2 (aldehyde dehydrogenase 3 family member A2) | 2 | -0.444 | -0.158 | inactive |
| ALDH3A2 (aldehyde dehydrogenase 3 family member A2) | 3 | -0.0592 | 2.55 | inactive |
| SMIM20 (small integral membrane protein 20) | 1 | -0.942 | -3.66 | inactive |
| SMIM20 (small integral membrane protein 20) | 2 | -0.438 | -0.111 | inactive |
| SMIM20 (small integral membrane protein 20) | 3 | 0.185 | 4.27 | inactive |
| MYOC (myocilin) | 1 | -1.06 | -4.46 | inactive |
| MYOC (myocilin) | 2 | -0.965 | -3.82 | inactive |
| MYOC (myocilin) | 3 | -1.42 | -7.01 | inactive |
| ZNF257 (zinc finger protein 257) | 1 | 0.0891 | 3.59 | inactive |
| ZNF257 (zinc finger protein 257) | 2 | 0.0893 | 3.6 | inactive |
| ZNF257 (zinc finger protein 257) | 3 | 0.497 | 6.46 | inactive |
| PRPF38B (pre-mRNA processing factor 38B) | 1 | -0.229 | 1.36 | inactive |
| PRPF38B (pre-mRNA processing factor 38B) | 2 | -0.266 | 1.1 | inactive |
| PRPF38B (pre-mRNA processing factor 38B) | 3 | -0.874 | -3.18 | inactive |
| ATP1A1 (ATPase Na+/K+ transporting subunit alpha 1) | 1 | 3.64 | 28.5 | inactive |
| ATP1A1 (ATPase Na+/K+ transporting subunit alpha 1) | 2 | -1.15 | -5.13 | inactive |
| ATP1A1 (ATPase Na+/K+ transporting subunit alpha 1) | 3 | 1.32 | 12.3 | inactive |

4 entries from above, ordered by “G2 robust z-score”, lowest first:
| target | reagent | G2 robust z-score | G2 cells, % of GMNN control | activity call |
| --- | --- | --- | --- | --- |
| MRPL55 (mitochondrial ribosomal protein L55) | 2 | -0.591 | -1.19 | inactive |
| CD47 (CD47 molecule) | 3 | 0.702 | 7.91 | inactive |
| MRPL55 (mitochondrial ribosomal protein L55) | 3 | 1.41 | 12.9 | inactive |
| MRPL55 (mitochondrial ribosomal protein L55) | 1 | 1.52 | 13.6 | inactive |

The listing continues.
| target | reagent | G2 robust z-score | G2 cells, % of GMNN control | activity call |
| --- | --- | --- | --- | --- |
| UGGT2 (UDP-glucose glycoprotein glucosyltransferase 2) | 1 | 1.86 | 16.1 | inactive |
| UGGT2 (UDP-glucose glycoprotein glucosyltransferase 2) | 2 | 0.171 | 4.17 | inactive |
| UGGT2 (UDP-glucose glycoprotein glucosyltransferase 2) | 3 | -0.544 | -0.86 | inactive |
| IGFBP3 (insulin like growth factor binding protein 3) | 1 | -0.938 | -3.63 | inactive |
| IGFBP3 (insulin like growth factor binding protein 3) | 2 | 1.98 | 16.9 | inactive |
| IGFBP3 (insulin like growth factor binding protein 3) | 3 | -0.144 | 1.95 | inactive |
| MAOA (monoamine oxidase A) | 1 | 5.66 | 42.8 | active |
| MAOA (monoamine oxidase A) | 2 | -0.455 | -0.236 | inactive |
| MAOA (monoamine oxidase A) | 3 | 3.22 | 25.6 | inactive |
| DNAJC13 (DnaJ heat shock protein family (Hsp40) member C13) | 1 | -0.423 | -0.00821 | inactive |
| DNAJC13 (DnaJ heat shock protein family (Hsp40) member C13) | 2 | -0.811 | -2.74 | inactive |
| DNAJC13 (DnaJ heat shock protein family (Hsp40) member C13) | 3 | 3.19 | 25.4 | inactive |
| TENT2 (terminal nucleotidyltransferase 2) | 1 | -0.554 | -0.928 | inactive |
| TENT2 (terminal nucleotidyltransferase 2) | 2 | -0.217 | 1.44 | inactive |
| TENT2 (terminal nucleotidyltransferase 2) | 3 | -0.592 | -1.2 | inactive |
| LYRM9 (LYR motif containing 9) | 1 | 0.706 | 7.93 | inactive |
| LYRM9 (LYR motif containing 9) | 2 | -0.253 | 1.19 | inactive |
| LYRM9 (LYR motif containing 9) | 3 | -0.281 | 0.99 | inactive |
| CD19 (CD19 molecule) | 1 | -0.0961 | 2.29 | inactive |
| CD19 (CD19 molecule) | 2 | 0.863 | 9.04 | inactive |
| CD19 (CD19 molecule) | 3 | 3.24 | 25.8 | inactive |
